Experimental data reported in patent publication US11590110B2, “Compositions and methods for reactivating latent immunodeficiency virus using a GSK-3 inhibitor” (priority 2017, dated 2023).

Tested on: NF-κB (p65)
Experiment: Example 5: NF-κB (p65) binding with target DNA sequences, ELISA
Format: cell-based, human
Conditions: 250 nM inhibitor

CC(C)n1nc(-c2cc3cc(O)ccc3[nH]2)c2c(N)ncnc21 [PP242]
nuclear p65 and dsDNA binding activity on addition to anti-CD3/CD28 coated beads: only a diminution
